Data published in patent US10925286B2, “Synergistic chalcone containing composition of a nematicide” (TELLURIS BIOTECH INDIA PRIVATE LIMITED, priority 2017, dated 2021).
Some of these results come from one statement about several compounds together. Some compounds share one range, which may span the group rather than tell each member.

Test system: J2 M. incognita
Experiment: Bioassay for killing J2 juvenile nematodes (% mortality), 96-well plate, 5 days
Assay type: in vivo, Meloidogyne incognita
Settings: chalcone alone, 10^−4-10^−5 M, Day 5
Source text: Tomato plants were inoculated with M. incognita juveniles and maintained in a growth chamber. After at least two months, the M. incognita eggs were extracted from the roots for experiments. The procedure followed for extracting M. incognita eggs is explained below.
The root tissues were either chopped by hand using a surgical blade and a watch glass, or it was chopped up using a food processor. The chopped tissue was then placed in a bottle and washed with a 10% dilution of bleach. Under sterile conditions, the root solution was then poured through sieves (60 count sieve on top, 500 count sieve on the bottom). The crude egg collection was collected from the bottom of the 500 count sieve into 5 mL each of bleach and egg mixture in 15 mL Falcon tubes. 5 mL of 70% sucrose solution was then placed in each Falcon tube. A 1 mL layer of double distilled sterile water was then gently placed on top of the sucrose mixtures in each Falcon tube. The samples were then centrifuged for 5 minutes at 1200 rpm. The embryos that were suspended between the sucrose solution and the 1 mL water layer were collected in a total of 3 mL (top layer of 3 mL of the solution) from each Falcon tube into fresh 15 mL Falcon tubes. 10 mL of a 5% bleach solution was added and the eggs were vortexed for 10 minutes. The Falcon tubes were then centrifuged for 5 minutes at 2000 rpm. The supernatant was then removed, and the eggs were rinsed in 10 mL of sterile double distilled water and re-centrifuged for 5 minutes at 2000 rpm. This process was repeated two more times. After the last wash, 5 mL of supernatant was removed, while the remaining 5 mL of water was mixed with the eggs and placed into a 5 mL Petri dish. […]
As described earlier, equal number nematodes were incubated in various treatment solutions in a 96-well plate for 5 days and the potency of different combination of nematicides was tested by counting the number of nematodes dead or surviving on Day 5. Similarly, the effect of different combination of nematicide composition on hatching of nematode eggs was also counted.

SMILES | death of juvenile nematodes
CCOc1ccc(C(=O)/C=C/c2ccccc2)cc1 [chalcone 25, (2E)-1-(4-Ethoxyphenyl)-3-phenyl-2-propen-1-one] | 70-85%
O=C(/C=C/c1ccccc1)c1cccs1 [chalcone 30, (2E)-3-Phenyl-1-(2-thienyl)-2-propen-1-one] | 70-85%
O=C(/C=C/c1ccccc1)c1ccc(Cl)cc1Cl [chalcone 17, (2E)-1-(2,4-Dichlorophenyl)-3-phenyl-2-propen-1-one] | 70-85%
